The nature of the test: qHTS Assay for Lipid Storage Modulators in Drosophila S3 Cells.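 On cell number change: cells counted by Cell Tracker Red CMTPX staining in the red channel.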 Particulars: BODIPY lipid droplet fluorescence, 18-24 h; for cell number change: measured here: cell count max response, cells fed with added oleic acid. The method, boiled down: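 Drosophila S3 cells got compounds at several concentrations plus oleic acid (400 uM solution). Laser-scanning cytometry with 488 nm excitation read lipid droplets at 500-530 nm and cells at 575-640 nm. Percent activity was relative to 20 uM Triacsin C.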

Setting [1] is: measured here: cell number channel AC50, cells fed with added oleic acid.
Setting [2] is: measured here: lipid fluorescence (Fed channel) AC50, cells fed with added oleic acid.

The values below come from PubChem BioAssay AID2685 (National Center for Advancing Translational Sciences (NCATS), 2010).

This is one part of the list. These are further read-outs of the screen, such as a control signal, another cell line or another target. No call is given for them. Compounds called inactive in the main read-out are mostly missing here. The note in brackets gives the kind of curve behind each potency; many fits are weak.

The term AC50 denotes the concentration giving half of the maximal activity seen.

As to `O=C(CNC(=O)c1ccc(Cl)cc1)NCCCn1ccnc1`, the cell number change is 34.5%. In addition, the AC50 under setting [1] is 29.1 µM [rising, single point].
Regarding `Cc1c(C(=O)N2CCN(c3ccc(F)cc3)CC2)sc2nc3n(c(=O)c12)CCC3`, the cell number change worked out at 15.8%.
`CCCn1nnnc1SCC(=O)c1ccc2c(c1)OCCO2`: the cell number change was -90.2%. Moreover, the AC50 under setting [1] was 16.4 µM [falling, partial curve]. The AC50 under setting [2] is 18.4 µM [falling, partial curve].
Turning to `Cc1c(C(=O)N(C)CC(=O)Nc2cccc(F)c2)oc2c(Cl)cccc12`, the cell number change was 22.5%.
For the molecule `Cc1ccc(/C=N/NC(=O)c2nnn(-c3nonc3N)c2CN(C)C)o1`, the cell number change is -16.2%. Moreover, the AC50 under setting [2] was 0.259 µM [falling, full curve, poor fit].
For the molecule `COc1ccc2cc(CO)n(C)c2c1`, the cell number change was -20.3%. Besides, the AC50 under setting [2] is 29.1 µM [rising, single point].
As to `CCOC(=O)c1nnn(-c2nonc2N)c1CN(CC)c1ccccc1`, the AC50 under setting [2] was 0.651 µM [falling, single point].
`CN1CCN(C2=C(Cl)C(=O)N(CCc3ccccc3)C2=O)CC1`: the cell number change is -41%. Also, under setting [1], the AC50 was 10.3 µM [falling, partial curve]. In addition, the AC50 under setting [2] was 14.6 µM [falling, partial curve].
Take `CCN(C(=O)CSc1nnc(Cn2nnc3ccccc32)o1)c1nc(-c2ccccc2)cs1`: the cell number change was -16.5%.
For `O=C(N/C=C/c1ccccc1)Nc1ccc(Cl)cc1`, the cell number change was -43.1%. Further, under setting [1], the AC50 was 14.6 µM [falling, single point].
With `Cc1ccc(CNCCCSc2nc(C)cc(C)n2)cc1`, the cell number change is -54.8%. Besides, the AC50 under setting [1] was 4.61 µM [falling, full curve]. For the same molecule, under setting [2], the AC50 is 2.59 µM [falling, partial curve].
With `CCOC(CNC(=O)c1ccc(N2CCc3ccccc32)c([N+](=O)[O-])c1)OCC`, the cell number change is -12.2%. The AC50 under setting [2] is 29.1 µM [falling, single point].
As to `COc1cccc(C(=O)Nc2ccc(C(=O)c3ccccc3)cc2)c1`, the cell number change worked out at 3.52%. Moreover, the AC50 under setting [2] is 29.1 µM [falling, single point].
Consider `N#Cc1ccc(-c2ccc(OCC(=O)Nc3cccnc3)cc2)cc1`, for which the AC50 under setting [2] is 9.2 µM [falling, partial curve].
Take `CCCOc1ccc(C(=O)NC2CCSc3ccccc32)cc1` (centres undefined): the cell number change is 154%. Moreover, the AC50 under setting [1] is 29.1 µM [rising, single point].
`CCCCC(NC(=O)c1ccc(Cl)cc1)C(=O)O` (centres undefined): the cell number change is -15.1%. Under setting [2], the AC50 is 29.1 µM [falling, single point].
For `CCOC(=O)N1CCN(C(=O)c2ccc(OC(C)=O)cc2)CC1`, the cell number change is -12.4%. Besides, the concentration at half-maximal activity (AC50) under setting [2] is 20.6 µM [falling, single point].
Consider `Cc1cccnc1NC(=O)c1ccc(Cl)c(S(=O)(=O)N2CCCCCC2)c1`, for which the AC50 under setting [1] was 0.731 µM [falling, full curve, poor fit].
For the molecule `CCC(CC)C(=O)Nc1nnc(SCC(=O)NC(C)(C)C)s1`, the cell number change is -3.36%. For the same molecule, the AC50 under setting [2] was 29.1 µM [falling, partial curve, poor fit].
`Cn1cc(S(=O)(=O)N2CCN(c3cccc(Cl)c3)CC2)c(=O)n(C)c1=O`: the cell number change was 7.61%. In addition, the AC50 under setting [2] is 6.51 µM [rising, partial curve, poor fit].
In the case of `Cc1cccn2c(=O)c3cc(C(=O)NC4CCCCC4)n(C)c3nc12`, the cell number change is -3.77%.
On the same count and under the same terms, the result for `COc1ccc(Cn2c(C)nc3oc4cc(OC)ccc4c(=O)c3c2=O)cc1` reads 0.978%.
As for `CN=C(Nc1cc(C)nn1-c1ccccc1)c1ccccc1F`, the cell number change was 46.9%. The AC50 under setting [1] was 0.00461 µM [rising, full curve, poor fit]. Besides, under setting [2], the AC50 was 0.00517 µM [rising, full curve, poor fit].
As for `COc1ccc(S(=O)(=O)N2CCC(C(=O)NC3CC3)CC2)cc1OC`, the cell number change is 22%. Under setting [2], the AC50 was 32.6 µM [rising, single point].
For the molecule `COc1cccc(CC(=O)Nc2nc(-c3ccc(F)c(F)c3)cs2)c1`, the cell number change came to 23.5%. For the same molecule, under setting [2], the AC50 is 29.1 µM [rising, single point].
`COc1cccc(NC(=S)N2CCC(NC(=O)c3ccco3)CC2)c1`: the cell number change was found to be 33.3%. The AC50 under setting [1] was 11.6 µM [rising, partial curve, poor fit]. The half-maximal activity concentration (AC50) under setting [2] was 0.116 µM [rising, single point].
In the case of `N#Cc1c(Nc2ccc(Cl)cc2)s[nH]c1=O`, the AC50 reads like this: under setting [1], 0.461 µM [falling, full curve, poor fit]; under setting [2], 0.116 µM [falling, full curve, poor fit].
For the molecule `COc1ccc(N(CC(=O)NCc2ccco2)S(=O)(=O)c2ccc(C)cc2)cc1`, the cell number change was -31.5%. Moreover, the AC50 under setting [1] was 5.8 µM [falling, partial curve]. For the same molecule, under setting [2], the AC50 is 8.2 µM [falling, partial curve].
As for `CC(C)C(=O)Nc1nnc(SCC(=O)NCC2CCCO2)s1` (centres undefined), the cell number change was determined as 32.9%. Also, the AC50 under setting [1] is 2.31 µM [falling, partial curve, poor fit]. For the same molecule, the AC50 under setting [2] is 3.66 µM [falling, partial curve].
Consider `O=C(N/N=C/c1cc([N+](=O)[O-])ccc1O)c1cccc(NC(=O)c2cccc(Cl)c2)c1`, for which the cell number change is -1.28%. Moreover, the AC50 under setting [2] was 2.59 µM [falling, full curve, poor fit].
Consider `CCC(=O)Nc1ccc(C(=O)NNC(=O)c2cccs2)cc1`, for which the cell number change was 20.1%. The AC50 under setting [2] is 29.1 µM [rising, single point].
In the case of `Cc1cccc2cc(CN(CC3CCCO3)C(=S)NCc3ccco3)c(=O)[nH]c12` (centres undefined), the cell number change was found to be 76.1%. Under setting [1], the AC50 was 20.6 µM [rising, single point].
Turning to `O=C(CCc1ccccc1)NCc1ccccc1`, the cell number change was -20%. For the same molecule, under setting [2], the concentration at half-maximal activity (AC50) is 8.2 µM [falling, partial curve, poor fit].
Consider `Cc1cc(NC(=O)CSc2nnc(-c3cccnc3)n2Cc2ccccc2)no1`, for which the AC50 under setting [2] is 2.06 µM [rising, single point].
`N#C/C(=C\c1coc2ccccc2c1=O)C(N)=S`: the cell number change is -19.6%.
Same read-out and setting: the value for `Cn1c(SCC(=O)Nc2nnc(-c3ccccc3)o2)nnc1C1CC1` was -0.578%.
`COC(=O)c1ccccc1NC(=O)C1CCCCC1C(=O)O` (centres undefined): the half-maximal activity concentration (AC50) under setting [1] is 6.51 µM [rising, single point].
As to `COc1ccc(C(=O)NCCSCc2cccc(Cl)c2)cc1OC`, the cell number change was determined as 11.9%. Moreover, the half-maximal activity concentration (AC50) under setting [1] was 0.231 µM [rising, full curve, poor fit]. Under setting [2], the AC50 is 29.1 µM [falling, single point].
Turning to `CN1/C(=C\C=C2\N=C(c3ccc(F)cc3)OC2=O)C(C)(C)c2ccccc21`, the AC50 is 6.51 µM [rising, single point] under setting [1] and 6.51 µM [rising, single point] under setting [2].
